The list shows a part of the results.
Compound: Cc1cc(ccc1-c1ccccc1)C(=O)N1CCCN(CC1)C(=O)CCl [compound 10]
Assay: probe-labelled cysteine peptide fold change vs DMSO (competition) (log2 fold change); higher = less target engagement (more negative = stronger competition)
Details: THP-1, incubation time: 4 h
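Further: competitive profiling in live THP-1 cells: cysteine peptides tagged with an iodoacetamide desthiobiotin (IA-DTB) probe, intensity after compound treatment relative to DMSO-treated cells.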

Protein sequences, listed by entry. Tags and fused reporters are not part of them. Lines headed by an entry give the natural chain unless they say otherwise; changes in a name come on top.
UniProt O00186: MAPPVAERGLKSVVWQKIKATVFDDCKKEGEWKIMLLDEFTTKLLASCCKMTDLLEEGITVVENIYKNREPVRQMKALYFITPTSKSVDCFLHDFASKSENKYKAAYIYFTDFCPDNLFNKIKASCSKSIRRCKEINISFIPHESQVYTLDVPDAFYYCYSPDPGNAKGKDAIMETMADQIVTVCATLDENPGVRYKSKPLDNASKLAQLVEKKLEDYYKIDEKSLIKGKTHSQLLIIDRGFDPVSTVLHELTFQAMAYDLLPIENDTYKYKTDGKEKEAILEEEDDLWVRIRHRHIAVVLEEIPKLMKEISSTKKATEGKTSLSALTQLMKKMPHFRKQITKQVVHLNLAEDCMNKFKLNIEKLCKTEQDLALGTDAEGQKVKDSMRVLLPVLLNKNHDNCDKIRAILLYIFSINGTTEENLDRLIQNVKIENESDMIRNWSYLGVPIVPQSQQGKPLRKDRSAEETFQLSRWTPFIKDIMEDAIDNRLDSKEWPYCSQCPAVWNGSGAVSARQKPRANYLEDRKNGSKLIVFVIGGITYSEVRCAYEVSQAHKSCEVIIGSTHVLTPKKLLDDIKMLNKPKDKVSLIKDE
UniProt Q9P246, whole entry, looked up: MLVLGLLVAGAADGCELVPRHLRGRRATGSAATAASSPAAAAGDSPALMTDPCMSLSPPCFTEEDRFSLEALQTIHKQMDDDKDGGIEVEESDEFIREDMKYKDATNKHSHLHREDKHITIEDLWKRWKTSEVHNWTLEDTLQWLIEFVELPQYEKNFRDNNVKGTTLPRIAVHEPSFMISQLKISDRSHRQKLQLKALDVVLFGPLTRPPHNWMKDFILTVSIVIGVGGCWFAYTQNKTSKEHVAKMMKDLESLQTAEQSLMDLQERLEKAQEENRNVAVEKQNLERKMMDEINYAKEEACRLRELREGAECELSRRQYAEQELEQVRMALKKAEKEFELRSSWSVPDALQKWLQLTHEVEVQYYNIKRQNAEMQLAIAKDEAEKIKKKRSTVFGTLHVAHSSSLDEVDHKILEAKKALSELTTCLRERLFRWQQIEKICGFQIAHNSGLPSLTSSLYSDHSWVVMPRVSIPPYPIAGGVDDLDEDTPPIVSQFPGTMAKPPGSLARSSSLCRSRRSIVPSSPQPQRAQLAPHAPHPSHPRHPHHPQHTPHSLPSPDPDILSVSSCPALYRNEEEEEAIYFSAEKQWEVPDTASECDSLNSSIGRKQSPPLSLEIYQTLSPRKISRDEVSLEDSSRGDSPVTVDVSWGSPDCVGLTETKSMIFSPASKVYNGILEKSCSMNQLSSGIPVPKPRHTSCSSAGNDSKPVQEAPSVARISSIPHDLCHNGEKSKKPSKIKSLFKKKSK
UniProt Q11201: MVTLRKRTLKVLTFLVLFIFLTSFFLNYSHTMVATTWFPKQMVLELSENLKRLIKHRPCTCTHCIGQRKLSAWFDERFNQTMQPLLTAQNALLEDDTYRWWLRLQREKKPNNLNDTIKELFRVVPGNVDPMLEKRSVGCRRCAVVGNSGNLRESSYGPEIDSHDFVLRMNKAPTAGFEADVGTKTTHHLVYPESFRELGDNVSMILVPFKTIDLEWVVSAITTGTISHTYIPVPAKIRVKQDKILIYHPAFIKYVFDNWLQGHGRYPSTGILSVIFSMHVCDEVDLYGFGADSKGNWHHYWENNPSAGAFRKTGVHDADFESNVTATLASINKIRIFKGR
UniProt P42224: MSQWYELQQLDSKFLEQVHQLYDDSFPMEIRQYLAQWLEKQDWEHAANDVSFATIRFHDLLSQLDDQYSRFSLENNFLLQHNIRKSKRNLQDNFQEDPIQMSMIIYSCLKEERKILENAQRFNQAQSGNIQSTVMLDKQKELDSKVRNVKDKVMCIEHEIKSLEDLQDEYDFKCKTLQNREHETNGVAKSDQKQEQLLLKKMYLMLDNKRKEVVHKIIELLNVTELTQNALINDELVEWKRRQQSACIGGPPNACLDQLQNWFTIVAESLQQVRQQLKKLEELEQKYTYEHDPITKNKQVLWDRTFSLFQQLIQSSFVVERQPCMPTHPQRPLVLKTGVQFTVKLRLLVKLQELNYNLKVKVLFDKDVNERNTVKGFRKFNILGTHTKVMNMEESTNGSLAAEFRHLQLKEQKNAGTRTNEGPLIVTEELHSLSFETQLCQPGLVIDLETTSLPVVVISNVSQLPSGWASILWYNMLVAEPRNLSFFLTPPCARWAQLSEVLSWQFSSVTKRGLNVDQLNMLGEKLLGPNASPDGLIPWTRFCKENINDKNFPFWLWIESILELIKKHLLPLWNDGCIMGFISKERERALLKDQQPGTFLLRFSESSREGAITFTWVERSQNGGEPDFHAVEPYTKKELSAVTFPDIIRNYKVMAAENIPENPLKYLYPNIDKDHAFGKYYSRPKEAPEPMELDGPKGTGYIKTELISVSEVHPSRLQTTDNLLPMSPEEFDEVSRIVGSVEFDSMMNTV
UniProt O94804: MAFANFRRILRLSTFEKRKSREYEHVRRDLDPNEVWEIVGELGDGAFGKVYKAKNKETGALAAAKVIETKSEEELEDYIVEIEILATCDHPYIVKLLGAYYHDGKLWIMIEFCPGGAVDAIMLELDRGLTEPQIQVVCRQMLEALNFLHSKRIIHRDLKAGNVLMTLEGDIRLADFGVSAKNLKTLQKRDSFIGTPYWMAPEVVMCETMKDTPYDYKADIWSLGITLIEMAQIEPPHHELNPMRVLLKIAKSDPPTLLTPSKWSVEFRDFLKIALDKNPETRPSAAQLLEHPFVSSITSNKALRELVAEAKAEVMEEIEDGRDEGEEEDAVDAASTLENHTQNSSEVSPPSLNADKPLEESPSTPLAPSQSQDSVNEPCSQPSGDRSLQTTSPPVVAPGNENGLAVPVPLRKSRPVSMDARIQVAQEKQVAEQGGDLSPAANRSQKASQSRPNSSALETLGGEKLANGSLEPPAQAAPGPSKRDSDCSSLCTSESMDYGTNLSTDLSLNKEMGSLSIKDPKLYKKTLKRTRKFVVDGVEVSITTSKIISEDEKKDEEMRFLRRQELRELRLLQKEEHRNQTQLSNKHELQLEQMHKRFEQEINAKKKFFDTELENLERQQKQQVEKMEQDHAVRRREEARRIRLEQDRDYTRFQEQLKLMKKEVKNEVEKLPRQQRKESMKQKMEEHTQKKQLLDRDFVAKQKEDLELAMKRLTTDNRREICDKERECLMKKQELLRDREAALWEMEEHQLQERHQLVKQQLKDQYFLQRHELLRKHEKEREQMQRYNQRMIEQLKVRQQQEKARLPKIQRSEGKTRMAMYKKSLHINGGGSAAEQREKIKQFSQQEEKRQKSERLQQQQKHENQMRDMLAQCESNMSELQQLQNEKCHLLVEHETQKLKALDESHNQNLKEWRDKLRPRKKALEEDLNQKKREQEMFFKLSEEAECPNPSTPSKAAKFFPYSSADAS
UniProt Q15833: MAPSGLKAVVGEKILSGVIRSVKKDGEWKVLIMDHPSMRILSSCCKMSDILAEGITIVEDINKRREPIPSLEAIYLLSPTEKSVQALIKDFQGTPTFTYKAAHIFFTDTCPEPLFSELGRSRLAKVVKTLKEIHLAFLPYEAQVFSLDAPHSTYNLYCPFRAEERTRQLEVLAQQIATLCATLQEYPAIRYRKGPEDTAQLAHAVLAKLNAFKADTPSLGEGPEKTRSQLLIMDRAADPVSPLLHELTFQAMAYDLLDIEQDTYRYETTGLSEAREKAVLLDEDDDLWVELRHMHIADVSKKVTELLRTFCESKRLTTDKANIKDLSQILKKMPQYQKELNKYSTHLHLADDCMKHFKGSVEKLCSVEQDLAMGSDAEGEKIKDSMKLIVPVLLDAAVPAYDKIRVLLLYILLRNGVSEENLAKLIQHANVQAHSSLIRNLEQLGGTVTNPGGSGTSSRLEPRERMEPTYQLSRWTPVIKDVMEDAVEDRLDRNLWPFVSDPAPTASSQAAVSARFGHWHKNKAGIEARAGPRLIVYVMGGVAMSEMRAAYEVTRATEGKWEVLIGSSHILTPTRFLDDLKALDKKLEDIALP
UniProt Q9UNE7: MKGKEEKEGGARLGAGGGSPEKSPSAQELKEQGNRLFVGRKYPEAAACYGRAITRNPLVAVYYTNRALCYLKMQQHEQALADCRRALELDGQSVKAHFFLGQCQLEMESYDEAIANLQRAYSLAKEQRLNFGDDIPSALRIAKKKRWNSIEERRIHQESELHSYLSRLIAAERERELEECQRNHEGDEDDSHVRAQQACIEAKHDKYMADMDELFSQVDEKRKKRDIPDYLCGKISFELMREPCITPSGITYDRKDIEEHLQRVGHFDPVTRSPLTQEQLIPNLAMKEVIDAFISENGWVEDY
UniProt O95630, whole entry, looked up: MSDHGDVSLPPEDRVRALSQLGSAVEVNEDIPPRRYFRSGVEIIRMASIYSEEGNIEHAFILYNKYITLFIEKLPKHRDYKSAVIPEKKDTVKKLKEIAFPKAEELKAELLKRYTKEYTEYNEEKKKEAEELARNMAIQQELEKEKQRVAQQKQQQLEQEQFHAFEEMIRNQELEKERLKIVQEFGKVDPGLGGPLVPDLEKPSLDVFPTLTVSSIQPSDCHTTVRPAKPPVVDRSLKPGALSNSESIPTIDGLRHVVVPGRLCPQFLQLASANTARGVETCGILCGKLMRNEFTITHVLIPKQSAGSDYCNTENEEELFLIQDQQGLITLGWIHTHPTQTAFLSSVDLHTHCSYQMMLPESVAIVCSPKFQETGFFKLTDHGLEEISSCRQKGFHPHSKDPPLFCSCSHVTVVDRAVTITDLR
UniProt Q15022: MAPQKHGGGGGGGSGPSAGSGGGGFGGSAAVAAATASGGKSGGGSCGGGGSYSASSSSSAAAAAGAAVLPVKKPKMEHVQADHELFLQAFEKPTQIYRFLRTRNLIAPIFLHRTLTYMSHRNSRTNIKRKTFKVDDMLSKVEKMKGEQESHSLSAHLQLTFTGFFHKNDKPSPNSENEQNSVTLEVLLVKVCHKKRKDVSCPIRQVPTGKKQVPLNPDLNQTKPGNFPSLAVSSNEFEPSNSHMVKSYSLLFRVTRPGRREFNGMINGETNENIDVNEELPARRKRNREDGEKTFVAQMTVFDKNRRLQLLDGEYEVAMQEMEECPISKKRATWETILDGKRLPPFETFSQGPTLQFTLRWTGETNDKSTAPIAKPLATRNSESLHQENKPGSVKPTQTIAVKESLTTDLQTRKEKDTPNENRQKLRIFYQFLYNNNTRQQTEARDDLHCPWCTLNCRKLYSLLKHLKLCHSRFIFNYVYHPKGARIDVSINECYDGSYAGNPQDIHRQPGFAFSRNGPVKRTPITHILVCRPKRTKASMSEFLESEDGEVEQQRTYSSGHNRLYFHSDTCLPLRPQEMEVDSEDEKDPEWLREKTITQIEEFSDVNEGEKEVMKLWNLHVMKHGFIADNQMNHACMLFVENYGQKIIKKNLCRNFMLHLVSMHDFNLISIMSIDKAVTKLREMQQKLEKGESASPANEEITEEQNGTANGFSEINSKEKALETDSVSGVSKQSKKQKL
UniProt Q9Y5M8: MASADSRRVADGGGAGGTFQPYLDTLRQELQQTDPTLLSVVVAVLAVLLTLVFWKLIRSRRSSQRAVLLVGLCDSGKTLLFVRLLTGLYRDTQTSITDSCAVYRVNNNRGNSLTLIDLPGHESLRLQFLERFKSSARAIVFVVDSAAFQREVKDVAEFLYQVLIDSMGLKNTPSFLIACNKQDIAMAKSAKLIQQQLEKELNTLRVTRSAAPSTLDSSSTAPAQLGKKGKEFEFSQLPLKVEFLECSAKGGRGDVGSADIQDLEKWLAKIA
UniProt Q5VSL9: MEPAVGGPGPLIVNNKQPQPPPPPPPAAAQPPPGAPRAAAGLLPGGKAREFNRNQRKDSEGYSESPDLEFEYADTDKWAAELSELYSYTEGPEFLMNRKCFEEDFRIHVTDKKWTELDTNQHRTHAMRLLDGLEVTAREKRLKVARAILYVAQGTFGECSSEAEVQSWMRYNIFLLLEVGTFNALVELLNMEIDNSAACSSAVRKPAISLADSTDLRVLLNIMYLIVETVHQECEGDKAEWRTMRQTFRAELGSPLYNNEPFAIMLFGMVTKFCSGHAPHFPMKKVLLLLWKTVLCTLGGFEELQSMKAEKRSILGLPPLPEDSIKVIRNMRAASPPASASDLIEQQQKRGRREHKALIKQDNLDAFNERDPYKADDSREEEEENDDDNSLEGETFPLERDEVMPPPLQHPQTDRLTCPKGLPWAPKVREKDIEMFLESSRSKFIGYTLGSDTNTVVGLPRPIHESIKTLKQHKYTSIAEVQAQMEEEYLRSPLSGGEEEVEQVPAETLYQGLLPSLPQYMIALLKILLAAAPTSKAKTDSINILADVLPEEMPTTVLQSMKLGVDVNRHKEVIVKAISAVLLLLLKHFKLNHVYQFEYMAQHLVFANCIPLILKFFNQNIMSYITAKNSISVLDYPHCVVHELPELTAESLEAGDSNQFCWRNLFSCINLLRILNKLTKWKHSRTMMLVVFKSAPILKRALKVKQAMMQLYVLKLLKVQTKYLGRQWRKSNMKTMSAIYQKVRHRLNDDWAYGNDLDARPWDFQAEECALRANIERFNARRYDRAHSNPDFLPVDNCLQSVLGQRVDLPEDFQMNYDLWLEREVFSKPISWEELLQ

Target | probe-labelled cysteine peptide fold change (10 µM) | probe-labelled cysteine peptide fold change (50 µM)
STXBP3_O00186_26_ATVFDDCKK (UniProt O00186) | -0.187 | -0.253
STIM2_Q9P246_313_EGAECELSR (UniProt Q9P246) | -0.223 | -0.513
STIP1_P31948_26_ALSVGNIDDALQCYSEAIK (UniProt P31948) | 0.326 | -0.0316
SRSF9_Q13242_80_NGYDYGQCR (UniProt Q13242) | 0.159 | -0.00957
ST3GAL1_Q11201_59_HRPCTCTHCIGQR (UniProt Q11201) | -0.119 | -0.101
SRRT_Q9BXP5_490_LRECELSPGVNR (UniProt Q9BXP5) | -0.201 | 0.0335
STT3A_P46977_637_VDREGSPVLLNCLMYK (UniProt P46977) | 0.0583 | -0.00172
STAT1_P42224_108_NLQDNFQEDPIQMSMIIYSCLK (UniProt P42224) | 0.0579 | 0.00709
ST14_Q9Y5Y6_268_SFDLASCDER (UniProt Q9Y5Y6) | -0.0626 | -1.09
SUMO1_P63165_52_ESYCQR (UniProt P63165) | -0.143 | 0.237
STK11IP_Q8N1F8_538_EVEAELCRPLLVCPLEGPEGVR (UniProt Q8N1F8) | -0.068 | -0.129
STARD3_Q14849_291_TFLPCPAELVYQEVILQPER (UniProt Q14849) | 0.678 | 0.907
SYMPK_Q92797_686_KYCEDESR (UniProt Q92797) | 0.217 | 0.412
STAG1_Q8WVM7_636_HVESDVLEACSK (UniProt Q8WVM7) | 0.218 | 0.335
STK10_O94804_138_GLTEPQIQVVCR (UniProt O94804) | 0.307 | 0.329
SRSF10_O75494-3_167_SHSDNDRPNCSWNTQYSSAYYTSR (UniProt O75494) | -0.337 | -0.557
STIL_Q15468_970_AVIISHECTR (UniProt Q15468) | -0.157 | -0.195
STXBP2_Q15833_110_AAHIFFTDTCPEPLFSELGR (UniProt Q15833) | 0.0186 | 0.272
SYK_P43405_597_MGCPAGCPR (UniProt P43405) | 0.0815 | -0.138
STK25_O00506_357_SQCLSTLVRPVFGELK (UniProt O00506) | 0.00916 | 0.00207

Single records, as listed above. Order of values: probe-labelled cysteine peptide fold change (10 µM) | probe-labelled cysteine peptide fold change (50 µM)
ST14_Q9Y5Y6_268_SFDLASCDER (UniProt Q9Y5Y6) reads -0.0626 | -1.09
STIM2_Q9P246_313_EGAECELSR (UniProt Q9P246) reads -0.223 | -0.513

The results go on.

Target | probe-labelled cysteine peptide fold change (10 µM) | probe-labelled cysteine peptide fold change (50 µM)
SRRM2_Q9UQ35_785_SLSGSSPCPK (UniProt Q9UQ35) | -0.479 | -0.673
SUN2_Q9UH99_601_VILQPDVHPGNCWAFQGPQGFAVVR (UniProt Q9UH99) | 0.0264 | 0.295
STUB1_Q9UNE7_244_EPCITPSGITYDRK (UniProt Q9UNE7) | 0.0387 | -0.0972
STAMBP_O95630_282_GVETCGILCGK (UniProt O95630) | 0.163 | -0.0572
SUN1_O94901_657_CSETYETK (UniProt O94901) | -0.221 | -0.151
STAMBP_O95630_390_LTDHGLEEISSCR (UniProt O95630) | 0.057 | 0.235
STUB1_Q9UNE7_83_MQQHEQALADCRR (UniProt Q9UNE7) | 0.121 | -0.0798
SUZ12_Q15022_201_DVSCPIR (UniProt Q15022) | -0.099 | -0.27
STYX_Q8WUJ0_62_HGITHIICIR (UniProt Q8WUJ0) | 0.0681 | 0.156
SRPRB_Q9Y5M8_246_VEFLECSAK (UniProt Q9Y5M8) | -0.0899 | 0.0703
STXBP3_O00186_114_AAYIYFTDFCPDNLFNK (UniProt O00186) | 0.0291 | 0.184
STK19_P49842_354_LGLTYHVHDLIGAQLVDCISTTSGTLLR (UniProt P49842) | 0.111 | 0.203
STT3A_P46977_637_EGSPVLLNCLMYK (UniProt P46977) | 0.013 | 0.318
STK10_O94804_947_LSEEAECPNPSTPSK (UniProt O94804) | -0.0774 | -0.445
SUPT6H_Q7KZ85_1281_FSADLTCR (UniProt Q7KZ85) | -0.129 | -0.0215
STRIP1_Q5VSL9_100_CFEEDFR (UniProt Q5VSL9) | -0.0939 | -0.0406
STAT1_P42224_155_VMCIEHEIK (UniProt P42224) | 0.0705 | -0.344
STRIP1_Q5VSL9_769_HRLNDDWAYGNDLDARPWDFQAEECALR (UniProt Q5VSL9) | -0.318 | -0.857
STXBP2_Q15833_44_ILSSCCK (UniProt Q15833) | 0.214 | -0.507
SUZ12_Q15022_531_TPITHILVCRPK (UniProt Q15022) | -0.105 | -0.316

Source: the supplement of paper PMC12067093, “Discovery and optimisation of a covalent ligand for TRIM25 and its application to targeted protein ubiquitination” (Chemical Science, 2025)
